Source: paper PMC8464605
These are yes or no findings as the source states them, for the method shown. Binding seen in cells or lysates may run through a third protein. Some results given as binding are weak or reduced against the parent protein; the word gives no strength.

The chains behind the UniProt entries cited, without tags or fusion partners.
UniProt Q15910: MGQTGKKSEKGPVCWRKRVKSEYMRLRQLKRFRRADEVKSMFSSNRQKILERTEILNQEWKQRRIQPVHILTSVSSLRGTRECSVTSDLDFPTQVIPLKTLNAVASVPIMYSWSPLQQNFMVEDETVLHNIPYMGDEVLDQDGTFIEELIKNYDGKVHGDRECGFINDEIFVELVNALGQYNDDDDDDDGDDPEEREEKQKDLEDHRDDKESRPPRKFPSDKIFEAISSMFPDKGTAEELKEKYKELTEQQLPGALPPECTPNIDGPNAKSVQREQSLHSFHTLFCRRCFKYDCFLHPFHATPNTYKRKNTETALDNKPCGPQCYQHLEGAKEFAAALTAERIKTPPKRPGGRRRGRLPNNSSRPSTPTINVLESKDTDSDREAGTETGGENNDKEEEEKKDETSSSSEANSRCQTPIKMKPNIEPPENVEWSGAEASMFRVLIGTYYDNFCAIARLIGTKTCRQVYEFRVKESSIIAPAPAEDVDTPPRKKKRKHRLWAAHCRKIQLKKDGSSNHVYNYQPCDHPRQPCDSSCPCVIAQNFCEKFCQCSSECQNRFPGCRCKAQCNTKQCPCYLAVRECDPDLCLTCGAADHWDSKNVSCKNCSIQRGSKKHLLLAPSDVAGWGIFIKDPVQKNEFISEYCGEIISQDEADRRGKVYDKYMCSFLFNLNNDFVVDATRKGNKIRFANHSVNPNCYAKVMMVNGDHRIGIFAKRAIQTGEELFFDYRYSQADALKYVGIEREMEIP
UniProt O14929: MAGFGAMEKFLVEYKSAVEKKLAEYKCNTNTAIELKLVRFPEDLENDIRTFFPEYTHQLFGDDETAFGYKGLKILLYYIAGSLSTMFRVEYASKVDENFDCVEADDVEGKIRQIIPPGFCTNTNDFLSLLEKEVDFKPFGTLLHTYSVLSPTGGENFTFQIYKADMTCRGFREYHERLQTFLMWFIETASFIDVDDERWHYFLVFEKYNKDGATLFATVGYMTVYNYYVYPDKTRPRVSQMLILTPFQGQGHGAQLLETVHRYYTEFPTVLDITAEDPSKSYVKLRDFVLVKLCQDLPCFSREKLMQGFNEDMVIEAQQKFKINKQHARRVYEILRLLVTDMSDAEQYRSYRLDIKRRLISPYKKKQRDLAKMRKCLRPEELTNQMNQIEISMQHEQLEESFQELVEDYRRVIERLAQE
UniProt Q5T4S7: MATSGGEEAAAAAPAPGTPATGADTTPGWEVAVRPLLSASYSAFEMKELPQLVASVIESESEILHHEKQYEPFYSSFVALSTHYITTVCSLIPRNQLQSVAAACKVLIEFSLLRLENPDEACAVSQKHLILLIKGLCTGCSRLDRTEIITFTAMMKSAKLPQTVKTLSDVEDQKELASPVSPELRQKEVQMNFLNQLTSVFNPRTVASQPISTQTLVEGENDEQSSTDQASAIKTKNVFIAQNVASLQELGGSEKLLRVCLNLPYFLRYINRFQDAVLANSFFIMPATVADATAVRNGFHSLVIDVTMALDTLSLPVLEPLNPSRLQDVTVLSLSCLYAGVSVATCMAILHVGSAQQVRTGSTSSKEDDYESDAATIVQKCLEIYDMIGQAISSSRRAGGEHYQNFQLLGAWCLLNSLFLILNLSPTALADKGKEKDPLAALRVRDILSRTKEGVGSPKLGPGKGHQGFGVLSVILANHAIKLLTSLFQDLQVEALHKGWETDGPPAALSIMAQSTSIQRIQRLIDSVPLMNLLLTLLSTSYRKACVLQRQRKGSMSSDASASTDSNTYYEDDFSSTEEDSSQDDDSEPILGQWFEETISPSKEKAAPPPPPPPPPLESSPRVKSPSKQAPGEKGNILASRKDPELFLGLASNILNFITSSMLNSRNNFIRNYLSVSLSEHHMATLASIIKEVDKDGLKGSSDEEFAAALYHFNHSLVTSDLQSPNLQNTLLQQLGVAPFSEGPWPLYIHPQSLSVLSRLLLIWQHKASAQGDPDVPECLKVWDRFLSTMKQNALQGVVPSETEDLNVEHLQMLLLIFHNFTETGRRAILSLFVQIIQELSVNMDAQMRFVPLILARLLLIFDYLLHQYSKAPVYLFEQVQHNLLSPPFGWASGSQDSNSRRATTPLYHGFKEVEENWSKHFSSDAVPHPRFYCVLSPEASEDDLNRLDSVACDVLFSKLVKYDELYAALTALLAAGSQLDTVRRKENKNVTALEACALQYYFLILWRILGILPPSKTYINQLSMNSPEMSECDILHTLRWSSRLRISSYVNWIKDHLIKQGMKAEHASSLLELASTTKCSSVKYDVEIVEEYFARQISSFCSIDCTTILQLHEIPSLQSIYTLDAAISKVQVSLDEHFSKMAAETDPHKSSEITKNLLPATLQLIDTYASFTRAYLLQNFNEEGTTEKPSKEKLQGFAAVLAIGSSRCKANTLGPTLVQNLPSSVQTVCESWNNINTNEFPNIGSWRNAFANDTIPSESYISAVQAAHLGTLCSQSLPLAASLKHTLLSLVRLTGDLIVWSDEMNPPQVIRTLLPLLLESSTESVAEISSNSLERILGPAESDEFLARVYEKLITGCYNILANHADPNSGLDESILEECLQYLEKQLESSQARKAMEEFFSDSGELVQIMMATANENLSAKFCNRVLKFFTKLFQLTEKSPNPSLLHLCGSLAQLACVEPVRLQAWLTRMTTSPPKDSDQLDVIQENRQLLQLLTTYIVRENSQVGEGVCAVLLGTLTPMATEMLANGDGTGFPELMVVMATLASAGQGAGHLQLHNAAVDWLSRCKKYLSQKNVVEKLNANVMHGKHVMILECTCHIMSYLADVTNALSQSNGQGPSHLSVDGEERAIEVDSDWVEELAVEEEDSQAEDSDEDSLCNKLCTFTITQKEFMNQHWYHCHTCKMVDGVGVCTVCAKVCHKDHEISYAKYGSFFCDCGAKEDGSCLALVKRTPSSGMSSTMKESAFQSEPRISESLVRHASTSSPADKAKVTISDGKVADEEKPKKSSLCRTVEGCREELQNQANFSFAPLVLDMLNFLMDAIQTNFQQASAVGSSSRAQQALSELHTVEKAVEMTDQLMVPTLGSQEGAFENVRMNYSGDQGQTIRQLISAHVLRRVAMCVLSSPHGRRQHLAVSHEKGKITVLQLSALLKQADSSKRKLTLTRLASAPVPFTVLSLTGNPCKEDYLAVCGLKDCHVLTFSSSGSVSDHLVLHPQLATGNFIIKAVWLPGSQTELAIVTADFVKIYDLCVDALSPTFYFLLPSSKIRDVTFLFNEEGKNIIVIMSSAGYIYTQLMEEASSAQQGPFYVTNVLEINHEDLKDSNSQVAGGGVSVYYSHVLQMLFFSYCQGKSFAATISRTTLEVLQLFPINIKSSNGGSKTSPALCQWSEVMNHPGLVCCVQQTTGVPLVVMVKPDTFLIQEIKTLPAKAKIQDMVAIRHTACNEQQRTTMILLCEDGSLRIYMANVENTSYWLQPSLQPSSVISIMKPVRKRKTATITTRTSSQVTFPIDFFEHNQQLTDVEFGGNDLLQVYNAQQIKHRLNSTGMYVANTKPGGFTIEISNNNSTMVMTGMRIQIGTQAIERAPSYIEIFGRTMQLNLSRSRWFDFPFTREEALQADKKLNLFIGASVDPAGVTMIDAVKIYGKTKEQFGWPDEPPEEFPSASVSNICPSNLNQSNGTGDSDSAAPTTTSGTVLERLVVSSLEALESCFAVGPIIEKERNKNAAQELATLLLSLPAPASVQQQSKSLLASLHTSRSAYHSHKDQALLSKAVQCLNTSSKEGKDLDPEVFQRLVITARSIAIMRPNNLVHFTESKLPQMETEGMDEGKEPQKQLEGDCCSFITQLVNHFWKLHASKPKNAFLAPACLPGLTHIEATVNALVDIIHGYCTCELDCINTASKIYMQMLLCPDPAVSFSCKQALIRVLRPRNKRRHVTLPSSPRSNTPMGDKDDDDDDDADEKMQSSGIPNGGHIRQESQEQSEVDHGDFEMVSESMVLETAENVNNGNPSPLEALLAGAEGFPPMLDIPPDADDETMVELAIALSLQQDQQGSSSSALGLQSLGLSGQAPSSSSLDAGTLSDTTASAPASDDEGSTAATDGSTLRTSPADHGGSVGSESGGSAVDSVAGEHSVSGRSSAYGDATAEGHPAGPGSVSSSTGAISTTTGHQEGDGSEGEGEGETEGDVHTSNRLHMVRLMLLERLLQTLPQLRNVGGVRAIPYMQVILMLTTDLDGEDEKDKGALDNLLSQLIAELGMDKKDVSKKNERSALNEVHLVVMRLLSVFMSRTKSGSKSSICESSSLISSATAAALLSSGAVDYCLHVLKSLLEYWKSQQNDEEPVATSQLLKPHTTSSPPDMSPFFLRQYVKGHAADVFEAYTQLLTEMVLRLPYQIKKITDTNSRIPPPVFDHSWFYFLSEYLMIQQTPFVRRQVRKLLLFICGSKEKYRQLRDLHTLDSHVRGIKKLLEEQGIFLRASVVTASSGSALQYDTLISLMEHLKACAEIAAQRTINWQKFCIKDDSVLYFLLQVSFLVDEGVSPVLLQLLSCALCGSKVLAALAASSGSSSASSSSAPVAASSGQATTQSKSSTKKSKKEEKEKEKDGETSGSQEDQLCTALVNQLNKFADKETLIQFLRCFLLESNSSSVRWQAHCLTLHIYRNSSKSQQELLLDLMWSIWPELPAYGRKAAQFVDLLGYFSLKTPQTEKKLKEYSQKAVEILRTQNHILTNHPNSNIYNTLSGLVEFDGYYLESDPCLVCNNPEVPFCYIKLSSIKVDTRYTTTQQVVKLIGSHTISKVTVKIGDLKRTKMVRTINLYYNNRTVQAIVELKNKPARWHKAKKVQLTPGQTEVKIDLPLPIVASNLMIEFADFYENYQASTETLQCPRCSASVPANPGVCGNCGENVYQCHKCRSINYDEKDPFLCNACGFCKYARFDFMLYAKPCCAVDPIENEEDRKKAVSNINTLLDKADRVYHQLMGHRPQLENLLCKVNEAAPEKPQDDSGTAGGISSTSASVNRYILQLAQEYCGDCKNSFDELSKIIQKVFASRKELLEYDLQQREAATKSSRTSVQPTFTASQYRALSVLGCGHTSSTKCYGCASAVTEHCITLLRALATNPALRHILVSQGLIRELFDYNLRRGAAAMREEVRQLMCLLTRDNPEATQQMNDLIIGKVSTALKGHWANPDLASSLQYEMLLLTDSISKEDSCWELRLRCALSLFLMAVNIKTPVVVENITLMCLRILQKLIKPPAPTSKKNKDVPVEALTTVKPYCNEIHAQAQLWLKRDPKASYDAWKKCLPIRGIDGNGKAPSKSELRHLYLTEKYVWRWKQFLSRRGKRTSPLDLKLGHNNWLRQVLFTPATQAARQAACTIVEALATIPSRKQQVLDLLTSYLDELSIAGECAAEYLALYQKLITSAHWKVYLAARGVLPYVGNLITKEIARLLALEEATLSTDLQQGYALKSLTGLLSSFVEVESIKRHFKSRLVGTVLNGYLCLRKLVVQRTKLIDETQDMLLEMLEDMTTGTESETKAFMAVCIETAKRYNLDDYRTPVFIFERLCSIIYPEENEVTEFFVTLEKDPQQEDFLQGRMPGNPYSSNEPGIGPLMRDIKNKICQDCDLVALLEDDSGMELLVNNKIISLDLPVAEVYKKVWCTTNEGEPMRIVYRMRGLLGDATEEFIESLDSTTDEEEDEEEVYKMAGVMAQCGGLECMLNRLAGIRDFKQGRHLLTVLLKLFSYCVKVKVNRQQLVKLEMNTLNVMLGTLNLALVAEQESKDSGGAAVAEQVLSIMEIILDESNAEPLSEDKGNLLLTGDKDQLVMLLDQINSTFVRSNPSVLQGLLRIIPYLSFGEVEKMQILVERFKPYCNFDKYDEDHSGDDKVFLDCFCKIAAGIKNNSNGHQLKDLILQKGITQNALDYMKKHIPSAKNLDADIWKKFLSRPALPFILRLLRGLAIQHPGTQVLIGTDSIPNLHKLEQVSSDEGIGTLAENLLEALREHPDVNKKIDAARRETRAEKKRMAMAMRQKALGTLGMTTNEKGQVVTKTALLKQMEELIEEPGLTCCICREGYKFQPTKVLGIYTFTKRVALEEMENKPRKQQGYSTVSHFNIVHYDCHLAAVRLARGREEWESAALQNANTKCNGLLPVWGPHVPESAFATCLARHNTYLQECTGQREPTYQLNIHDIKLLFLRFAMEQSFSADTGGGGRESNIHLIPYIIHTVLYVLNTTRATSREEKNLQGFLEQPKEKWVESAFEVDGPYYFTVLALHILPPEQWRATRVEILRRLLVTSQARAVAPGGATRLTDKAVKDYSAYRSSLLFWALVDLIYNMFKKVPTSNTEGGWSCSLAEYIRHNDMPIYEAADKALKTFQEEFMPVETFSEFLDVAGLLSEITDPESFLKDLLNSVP

Key:
[1] = biological target: EZH2, exogenously expressed (UniProt Q15910); assay: co-IP; exogenously expressed proteins in pancreatic cancer cell lines (Fig. S5e); western/IP lysis buffer, protein A/G agarose beads
[2] = biological target: enhancer of zeste 2 polycomb repressive complex 2 subunit (EZH2), endogenous (human (endogenous in PANC-1, BxPC-3, MIA-PaCa-2)) (UniProt Q15910); assay: co-IP; EZH2 immunoprecipitated from PANC-1 lysate, UBR4 detected by western blot; cells infected with control shRNA or HAT1-specific shRNAs, HAT1 overexpressed or restored
[3] = biological target: whole-length GST-EZH2 recombinant protein (UniProt Q15910); assay: pull-down; GST fusion proteins immobilised on glutathione-sepharose beads, incubated 4 h with PANC-1 lysate (20 mmol/L Tris-HCl pH 7.5, 150 mmol/L NaCl, 0.1% Nonidet P40, 1 mmol/L DTT, 10% glycerol, 1 mmol/L EDTA, 2.5 mmol/L MgCl2); HAT1 detected by western blot; only the target purified
[4] = biological target: enhancer of zeste 2 polycomb repressive complex 2 subunit (EZH2), endogenous (human (endogenous in PANC-1, BxPC-3, MIA-PaCa-2)) (UniProt Q15910); assay: co-IP; endogenous proteins, reciprocal immunoprecipitation with anti-HAT1 and anti-EZH2 from lysates of PANC-1, BxPC-3 and MIA-PaCa-2 cells; western/IP lysis buffer, protein A/G agarose beads, overnight at 4 °C

Substance: HAT1, exogenously expressed (from UniProt O14929 1-419)
- binding [1]: binds

Substance: ubiquitin protein ligase E3 component n-recognin 4 (UBR4), endogenous (from UniProt Q5T4S7 1-5183)
- binding [2]: binds

Substance: histone acetyltransferase 1 (HAT1), endogenous (from UniProt O14929 1-419)
- binding [3]: binds
- binding [4]: binds
